In experiment [1] the target is T1, human FGF2 (human, UniProt P09038 143-288).
T1 construct: also called hFGF2; Fibroblast Growth Factor 2
In words: fixed human FGF2 incubated with increasing decoy, unbound FGF2 by ELISA.

The chains behind the UniProt entries cited, without tags or fusion partners. Where a name states a change or a piece, a line headed by the entry shows the natural chain unless it says otherwise.
UniProt P09038: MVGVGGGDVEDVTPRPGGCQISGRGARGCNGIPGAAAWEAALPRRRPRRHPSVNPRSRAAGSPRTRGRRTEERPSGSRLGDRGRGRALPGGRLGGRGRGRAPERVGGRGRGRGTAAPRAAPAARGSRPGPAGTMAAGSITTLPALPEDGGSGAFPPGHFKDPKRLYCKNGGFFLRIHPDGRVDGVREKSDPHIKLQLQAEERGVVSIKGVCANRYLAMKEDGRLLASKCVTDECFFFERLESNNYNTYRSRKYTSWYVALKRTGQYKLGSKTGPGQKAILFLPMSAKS
UniProt P22607: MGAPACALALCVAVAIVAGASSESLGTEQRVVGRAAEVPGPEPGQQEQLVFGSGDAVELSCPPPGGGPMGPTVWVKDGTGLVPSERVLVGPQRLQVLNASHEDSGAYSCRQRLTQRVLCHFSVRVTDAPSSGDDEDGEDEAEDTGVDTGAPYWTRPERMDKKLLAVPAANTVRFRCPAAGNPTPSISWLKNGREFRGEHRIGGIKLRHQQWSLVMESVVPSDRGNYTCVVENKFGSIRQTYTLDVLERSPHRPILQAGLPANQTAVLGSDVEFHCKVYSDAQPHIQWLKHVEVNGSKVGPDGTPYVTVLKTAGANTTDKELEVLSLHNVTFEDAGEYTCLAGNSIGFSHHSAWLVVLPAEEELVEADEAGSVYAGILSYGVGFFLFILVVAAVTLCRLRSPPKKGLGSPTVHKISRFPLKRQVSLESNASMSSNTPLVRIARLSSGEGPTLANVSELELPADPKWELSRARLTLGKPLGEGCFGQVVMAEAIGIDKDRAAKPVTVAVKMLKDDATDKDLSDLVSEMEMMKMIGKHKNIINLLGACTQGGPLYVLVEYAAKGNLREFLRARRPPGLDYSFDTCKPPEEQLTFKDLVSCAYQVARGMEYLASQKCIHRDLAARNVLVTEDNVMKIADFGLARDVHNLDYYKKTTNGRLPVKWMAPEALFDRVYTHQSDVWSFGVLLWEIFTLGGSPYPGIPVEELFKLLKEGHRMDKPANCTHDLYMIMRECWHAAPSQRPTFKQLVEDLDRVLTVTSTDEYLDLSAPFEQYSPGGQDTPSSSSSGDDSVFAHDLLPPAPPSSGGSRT

Experiment [2] has as its target T1, human FGF2. In words: fixed human FGF2 (1000 pg/ml) incubated with 0 to 250 ng/ml decoy, unbound FGF2 by ELISA. (An ELISA detects its analyte on a solid surface through an enzyme-linked reagent.)
For experiment [3], the target named is T1, human FGF2. In words: FGF2 depletion assay, unbound FGF2 by ELISA.

These are yes or no findings as the source states them, for the method shown. Some entries that bind do so weakly or less than the wild type.

This passage reports binding results from patent US20210009657A1 (THEACHON, published 2021).

“FLAG-sFGFR3 (from UniProt P22607 23-806) (receptor)”: the binding result in the experiment with human FGF2 [1] and with human FGF2 [2] was “binds” each time.
Consider “FLAG-sFGFR3_Del3 (from UniProt P22607 1-552) (receptor)”, for which the binding result with human FGF2 [3] and in the experiment with human FGF2 [2] was “binds” throughout.
Take “FLAG-sFGFR3_Del1 (from UniProt P22607 1-806) (receptor)”: the binding result with human FGF2 [3] and in the experiment with human FGF2 [2] was “binds” in each case.
On to “FLAG-sFGFR3_Del2 (from UniProt P22607 1-660) (receptor)”, for which the binding result in the experiment with human FGF2 [3] and with human FGF2 [2] was “binds” throughout.

B1: FLAG-sFGFR3_Del4 (receptor)
chain: DYKDDDDKMGAPACALALCVAVAIVAGASSESLGTEQRVVGRAAEVPGPEPGQQEQLVFGSGDAVELSCPPPGGGPMGPTVWVKDGTGLVPSERVLVGPQRLQVLNASHEDSGAYSCRQRLTQRVLCHFSVRVTDAPSSGDDEDGEDEAEDTGVDTGAPYWTRPERMDKKLLAVPAANTVRFRCPAAGNPTPSISWLKNGREFRGEHRIGGIKLRHQQWSLVMESVVPSDRGNYTCVVENKFGSIRQTYTLDVLERSPHRPILQAGLPANQTAVLGSDVEFHCKVYSDAQPHIQWLKHVEVNGSKVGPDGTPYVTVLKVSLESNASMSSNT
notes: Obtained by site directed mutagenesis of sFGFR3-pFLAG-CMV3 and made in HEK 293 cells; also called Del4 variant
Regarding B1, the binding entry with human FGF2 [3] and in the experiment with human FGF2 [2] was “binds” throughout.
